Measurements as given in patent US20230416382A1.
These are yes or no findings as the source states them, for the method shown. Some results given as binding are weak or reduced against the parent protein; the word gives no strength.

Target: cynomolgus CCR8 (Macaca fascicularis (cynomolgus))
Experiment: flow cytometry titration on cyCCR8_293 (HEK293) cells, anti-hIgG BV421 secondary

binding: binds
B1: I3145 (antibody, V domains shown)
VH: EVQLVETGGGLIQPGGSLRLSCAASGFTVSSNYMSWVRQAPGKGLEWVSVIYSGGSTYYADSVKGRFTISRDNSKNTLYLQMNSLRAEDTAVYYCARGLGSADYWGQGTLVTVSS
VL: DVVMTQSPLSLPVTLGQPASISCRSSQSLLHSNGNTYLNWFQQRPGQSPRRLIYKVSIRDSGVPDRFSGSGSGTDFTLKISRVEAEDVGLYYCMQSTQWPITFGGGTKLEIK
